Measured values published in US20060275295A1 (published 2006).

Biological target: T1, THAP domain of human THAP1 (THAP-His6) (Homo sapiens) (UniProt Q9NVV9)
T1 sequence: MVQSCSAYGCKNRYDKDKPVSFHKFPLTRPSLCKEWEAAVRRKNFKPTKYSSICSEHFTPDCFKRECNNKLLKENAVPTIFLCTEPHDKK
Assay: SELEX
Settings: 12 rounds; purified recombinant protein; protein details: C-terminal His6 (pET-21c); variant of SELEX random pool 62-mer

Selection result, selected:
CTGCCAGTACATAGTGTGGGCAA (double strand) [ER-11 selected 2], CTGCCAGTAGATACTGTGGGCAA (double strand) [ER-11 selected 4], CTGCCAGTAGTAAGTGTGGGCAG (double strand) [ER-11 selected 9], GGGCAAACTACTGGCAA (double strand) [DR-5 selected 4], GGGCAAACTGTGGGCAT (double strand) [DR-5 selected 2], GGGCAAAGTACTGGCAA (double strand) [DR-5 selected 9], GGGCAACACTACTGGCAA (double strand) [DR-5 selected 8], GGGCAACTGTGGGCAA (double strand) [DR-5 selected 7], GGGCATGTACTGGCAA (double strand) [DR-5 selected 6], GGGCCAGTTCGTTGCAA (double strand) [DR-5 selected 5], TTGCCAGTACCTACTAAGGGCAA (double strand) [ER-11 selected 7], TTGCCAGTAGTTAGGTGTGGGCGA (double strand) [ER-11 selected 5], TTGCCAGTAGTTAGTGTGGGCAA (double strand) [ER-11 selected 6], TTGCCAGTAGTTAGTGTGGGCAG (double strand) [ER-11 selected 8]

For at least one entry, the source does not settle the construct or the ends of the probe. Protein sequences can lack the tags named with them.
